Source: PubChem BioAssay AID1224830 (NIAID, 2016)

Test: 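Genes whose knock-down alters the TNF-alpha reporter response to LPS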 (primary screen)
Cell system: human THP-1 monocytic leukaemia cells, TNF dual-luciferase reporter clone, PMA-differentiated to macrophage-like cells
Reagents: siRNA pool against human genes, 50 nM
Duration: LPS for 4 h, given about 3 days after siRNA transfection
Treatment: bacterial LPS (TLR4 ligand), 10 ng/ml
Measured: 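TNF firefly reporter luminescence divided by renilla, normalised to the plate median, then turned into a robust z-score for each replicate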
Scale: TNF reporter robust z-score: higher = stronger TNF reporter response to LPS
Call rule: 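Each well counts as active if its z-score is over 2.8 or under -1.5; controls are left without a call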
This is a random part of about 18,000 reagents tested. Over the whole deposit, about 2,900 (16%) are marked active. 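Calls are made per well; low scores hint the gene aids the LPS response, high scores that it dampens it.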 Repeated entries: four replicate wells of each siRNA pool.

CCDC12 [SID315462513] — TNF reporter robust z-score: -1.65; activity call: active
CCDC12 [SID315462513] — TNF reporter robust z-score: -1.84; activity call: active
CCDC12 [SID315462513] — TNF reporter robust z-score: -1.75; activity call: active
CCDC12 [SID315462513] — TNF reporter robust z-score: -1.7; activity call: active
SEC22B [SID315453379] — TNF reporter robust z-score: -0.83; activity call: inactive
SEC22B [SID315453379] — TNF reporter robust z-score: 0.22; activity call: inactive
SEC22B [SID315453379] — TNF reporter robust z-score: 0.38; activity call: inactive
SEC22B [SID315453379] — TNF reporter robust z-score: 1.17; activity call: inactive
STYXL2 [SID315460989] — TNF reporter robust z-score: -0.12; activity call: inactive
STYXL2 [SID315460989] — TNF reporter robust z-score: 0; activity call: inactive
STYXL2 [SID315460989] — TNF reporter robust z-score: 0.88; activity call: inactive
STYXL2 [SID315460989] — TNF reporter robust z-score: 1.25; activity call: inactive
MYOD1 [SID315450134] — TNF reporter robust z-score: 0.46; activity call: inactive
MYOD1 [SID315450134] — TNF reporter robust z-score: 0.61; activity call: inactive
MYOD1 [SID315450134] — TNF reporter robust z-score: 0.85; activity call: inactive
MYOD1 [SID315450134] — TNF reporter robust z-score: 1.26; activity call: inactive
NDC1 [SID315457788] — TNF reporter robust z-score: -0.39; activity call: inactive
NDC1 [SID315457788] — TNF reporter robust z-score: 0.02; activity call: inactive
NDC1 [SID315457788] — TNF reporter robust z-score: -0.61; activity call: inactive
NDC1 [SID315457788] — TNF reporter robust z-score: -0.27; activity call: inactive
HOATZ [SID315464729] — TNF reporter robust z-score: -0.52; activity call: inactive
HOATZ [SID315464729] — TNF reporter robust z-score: -0.55; activity call: inactive
HOATZ [SID315464729] — TNF reporter robust z-score: -0.76; activity call: inactive
HOATZ [SID315464729] — TNF reporter robust z-score: -0.57; activity call: inactive
SH3BP1 [SID315455369] — TNF reporter robust z-score: -0.24; activity call: inactive
SH3BP1 [SID315455369] — TNF reporter robust z-score: 2.5; activity call: inactive
SH3BP1 [SID315455369] — TNF reporter robust z-score: 0.43; activity call: inactive
SH3BP1 [SID315455369] — TNF reporter robust z-score: -0.01; activity call: inactive
SLC16A5 [SID315453058] — TNF reporter robust z-score: -0.93; activity call: inactive
SLC16A5 [SID315453058] — TNF reporter robust z-score: -0.94; activity call: inactive
SLC16A5 [SID315453058] — TNF reporter robust z-score: -0.45; activity call: inactive
SLC16A5 [SID315453058] — TNF reporter robust z-score: 0.67; activity call: inactive

The list goes on (6 carried over from the part before).
SH3BP1 [SID315455369] — TNF reporter robust z-score: 0.43; activity call: inactive
SH3BP1 [SID315455369] — TNF reporter robust z-score: -0.01; activity call: inactive
SLC16A5 [SID315453058] — TNF reporter robust z-score: -0.93; activity call: inactive
SLC16A5 [SID315453058] — TNF reporter robust z-score: -0.94; activity call: inactive
SLC16A5 [SID315453058] — TNF reporter robust z-score: -0.45; activity call: inactive
SLC16A5 [SID315453058] — TNF reporter robust z-score: 0.67; activity call: inactive
SPEG [SID315453981] — TNF reporter robust z-score: -0.17; activity call: inactive
SPEG [SID315453981] — TNF reporter robust z-score: 0.11; activity call: inactive
SPEG [SID315453981] — TNF reporter robust z-score: -0.29; activity call: inactive
SPEG [SID315453981] — TNF reporter robust z-score: -1.41; activity call: inactive
ZNF562 [SID315457176] — TNF reporter robust z-score: -0.33; activity call: inactive
ZNF562 [SID315457176] — TNF reporter robust z-score: 1.35; activity call: inactive
ZNF562 [SID315457176] — TNF reporter robust z-score: 1.32; activity call: inactive
ZNF562 [SID315457176] — TNF reporter robust z-score: 0.39; activity call: inactive
MYH13 [SID315452783] — TNF reporter robust z-score: 0.54; activity call: inactive
MYH13 [SID315452783] — TNF reporter robust z-score: -0.6; activity call: inactive
MYH13 [SID315452783] — TNF reporter robust z-score: -0.79; activity call: inactive
MYH13 [SID315452783] — TNF reporter robust z-score: 0.21; activity call: inactive
EXOC2 [SID315457843] — TNF reporter robust z-score: 0.73; activity call: inactive
EXOC2 [SID315457843] — TNF reporter robust z-score: -0.83; activity call: inactive
EXOC2 [SID315457843] — TNF reporter robust z-score: 1.07; activity call: inactive
EXOC2 [SID315457843] — TNF reporter robust z-score: 0.35; activity call: inactive
CUTA [SID315456797] — TNF reporter robust z-score: -1.01; activity call: inactive
CUTA [SID315456797] — TNF reporter robust z-score: -0.85; activity call: inactive
CUTA [SID315456797] — TNF reporter robust z-score: -0.23; activity call: inactive
CUTA [SID315456797] — TNF reporter robust z-score: 0; activity call: inactive
SURF6 [SID315451714] — TNF reporter robust z-score: 0.06; activity call: inactive
SURF6 [SID315451714] — TNF reporter robust z-score: 0.03; activity call: inactive
SURF6 [SID315451714] — TNF reporter robust z-score: -0.1; activity call: inactive
SURF6 [SID315451714] — TNF reporter robust z-score: -0.2; activity call: inactive
AKAP13 [SID315454691] — TNF reporter robust z-score: 0.06; activity call: inactive
AKAP13 [SID315454691] — TNF reporter robust z-score: -0.29; activity call: inactive
AKAP13 [SID315454691] — TNF reporter robust z-score: -0.44; activity call: inactive
AKAP13 [SID315454691] — TNF reporter robust z-score: 0.49; activity call: inactive
